These are yes or no findings as the source states them, for the method shown. Binding seen in cells or lysates may run through a third protein. Some results given as binding are weak or reduced against the parent protein; the word gives no strength.
Target: HA-tagged ICN1 (UniProt P46531)
Assay: anti-FLAG co-immunoprecipitation from co-transfected COS7 cell lysates, western blot with anti-HA

Protein sequences, listed by entry. Tags and fused reporters are not part of them. Residues count along the entry.
UniProt P46531, residues 1770-2555: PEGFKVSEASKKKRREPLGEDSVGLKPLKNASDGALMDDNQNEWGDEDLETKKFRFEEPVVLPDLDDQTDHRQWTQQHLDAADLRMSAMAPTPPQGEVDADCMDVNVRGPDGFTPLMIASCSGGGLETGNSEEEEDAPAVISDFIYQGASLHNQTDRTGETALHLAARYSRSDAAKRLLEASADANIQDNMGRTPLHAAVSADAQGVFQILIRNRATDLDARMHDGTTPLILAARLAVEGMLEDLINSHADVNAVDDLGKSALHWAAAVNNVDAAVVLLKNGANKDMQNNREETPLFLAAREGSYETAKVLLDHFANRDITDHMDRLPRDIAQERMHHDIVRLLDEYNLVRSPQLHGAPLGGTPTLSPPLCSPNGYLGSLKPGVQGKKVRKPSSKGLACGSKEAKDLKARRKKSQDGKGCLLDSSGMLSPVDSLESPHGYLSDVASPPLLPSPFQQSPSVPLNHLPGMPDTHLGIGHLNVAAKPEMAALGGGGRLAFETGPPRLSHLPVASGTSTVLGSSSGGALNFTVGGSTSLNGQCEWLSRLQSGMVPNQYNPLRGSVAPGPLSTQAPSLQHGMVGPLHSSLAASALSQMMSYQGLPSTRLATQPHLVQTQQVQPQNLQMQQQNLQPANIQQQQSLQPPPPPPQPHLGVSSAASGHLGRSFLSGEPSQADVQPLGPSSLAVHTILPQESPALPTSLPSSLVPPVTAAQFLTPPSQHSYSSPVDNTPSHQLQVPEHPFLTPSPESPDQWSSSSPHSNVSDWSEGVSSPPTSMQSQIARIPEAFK
UniProt Q8IZL2: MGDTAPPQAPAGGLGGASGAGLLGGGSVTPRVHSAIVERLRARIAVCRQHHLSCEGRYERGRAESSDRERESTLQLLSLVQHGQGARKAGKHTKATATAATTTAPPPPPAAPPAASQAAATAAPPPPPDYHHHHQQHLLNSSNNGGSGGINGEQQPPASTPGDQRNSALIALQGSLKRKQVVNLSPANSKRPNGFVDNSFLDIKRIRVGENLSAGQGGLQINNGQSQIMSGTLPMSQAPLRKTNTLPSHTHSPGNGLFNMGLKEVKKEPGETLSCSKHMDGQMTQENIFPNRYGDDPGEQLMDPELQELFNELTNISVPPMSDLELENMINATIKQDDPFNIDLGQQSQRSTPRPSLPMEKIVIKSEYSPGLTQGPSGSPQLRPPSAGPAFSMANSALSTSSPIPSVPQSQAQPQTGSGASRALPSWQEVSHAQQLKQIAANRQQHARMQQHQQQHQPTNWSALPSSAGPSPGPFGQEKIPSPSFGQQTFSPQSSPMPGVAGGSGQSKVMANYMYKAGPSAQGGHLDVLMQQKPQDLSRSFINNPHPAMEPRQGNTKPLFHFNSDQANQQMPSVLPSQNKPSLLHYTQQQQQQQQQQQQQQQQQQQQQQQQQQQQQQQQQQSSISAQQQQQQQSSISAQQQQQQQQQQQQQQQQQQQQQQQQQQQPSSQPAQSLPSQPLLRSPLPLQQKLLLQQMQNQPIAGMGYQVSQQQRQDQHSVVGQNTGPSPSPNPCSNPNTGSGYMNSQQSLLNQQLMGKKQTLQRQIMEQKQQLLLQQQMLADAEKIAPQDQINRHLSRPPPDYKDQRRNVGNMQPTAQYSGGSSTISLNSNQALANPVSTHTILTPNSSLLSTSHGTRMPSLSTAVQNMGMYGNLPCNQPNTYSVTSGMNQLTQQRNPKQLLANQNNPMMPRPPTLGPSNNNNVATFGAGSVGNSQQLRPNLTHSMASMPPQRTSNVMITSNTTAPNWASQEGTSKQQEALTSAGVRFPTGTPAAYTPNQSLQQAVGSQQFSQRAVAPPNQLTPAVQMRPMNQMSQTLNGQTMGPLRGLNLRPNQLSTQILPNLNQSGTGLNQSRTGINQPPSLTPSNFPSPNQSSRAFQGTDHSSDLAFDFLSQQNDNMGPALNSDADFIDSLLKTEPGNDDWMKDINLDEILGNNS

“FLAG-tagged MAML2 (from UniProt Q8IZL2 1-1156)” was tested, and the binding was “binds”.

— patent US20040180349A1
